In patent EP0728012B1 (Lovas, Sandor, priority 1994, dated 1996):

Assay: general procedure: Boc solid-phase peptide synthesis; benzhydrylamine (BHA) resin, 0.65 milliequivalent/g; DIC/HOBt; BOP reagent for bulky amino acids; symmetric anhydride for recoupling
Details: whole synthesis
[1] = scale of the general procedure 0.5 mmol of BHA resin

PEPTIDE1{[Glp].H.W.S.[KFmoc].D.W.K.P.G.[am]}$$$$V2.0
crude purity (method not given) [1]: 85%

Lys^5[Lys(εFmoc)]^8-GnRH-III
crude purity (method not given) [1]: about 80%

PEPTIDE1{[Glp].H.W.S.K.[xdW].L.R.P.G.[am]}$$$$V2.0
isolated mass (scale 0.5 mmol): 52 mg

Lys^4[Lys(ε-Fmoc)]^8-GnRH-III
crude mass (scale 1 mmol): 1.04 g | crude purity (method not given) (scale 1 mmol): 80%

HELM strings list residues between dots; [ac] is acetyl, [am] amide, other brackets name non-standard units.
